{"source": "patent US20100249370", "about": "(published 2010)", "key": {"[1]": {"experiment": "general procedure: hybrid (solid and solution phase) peptide synthesis; CTC resin; TCTU/6-Cl-HOBt/DIEA", "conditions": "whole synthesis, scale 80 g CTC resin, 0.66 mmol/g"}, "[2]": {"experiment": "general procedure: hybrid (solid and solution phase) peptide synthesis; Sieber resin; TCTU/6-Cl-HOBt/DIEA", "conditions": "whole synthesis, scale 150 g Sieber resin, 0.55 mmol/g"}, "[3]": {"experiment": "general procedure: hybrid (solid and solution phase) peptide synthesis; CTC resin (fragments with free carboxylic function); Sieber resin (C-terminal fragment); TCTU/6-Cl-HOBt/DIEA", "conditions": "late stage modification step"}}}
{"substance": "P-Ala-Asn-^15Phe-Leu-Val-His-Ser-^20Ser-Asn-Asn-Phe-Gly-OH (II)", "values": [{"measurement": "crude mass", "setting": "[1]", "value": 143, "unit": "g"}]}
{"substance": "H-^25Pro-Ile-Leu-Pro-Pro-^30Thr-Asn-Val-Gly-Ser-^35Asn-Thr-Tyr-NH2 (III)", "values": [{"measurement": "crude mass", "setting": "[2]", "value": 145.75, "unit": "g"}]}
{"substance": "pramlintide", "values": [{"measurement": "final purity (method not given)", "setting": "[3]", "value": 97.5, "unit": "%"}]}
